No end group written: not given here.

In this series the test system is human red blood cells (hRBC). As to the kind of experiment: Hemolytic activity. It counts as cell-based. The note with it: 512 µM used for MHC >[…]. The procedure:
The amount of released hemoglobin by the lysis of erythrocytes was measured for hemolytic activity of peptides. Human erythrocytes were obtained from a healthy donor with written informed consent. The experimental protocol was reviewed and approved by the ethics committee of the Northeast Agricultural University Hospital. The measurement was based on a previously described method. The fresh hRBCs were washed three times by centrifugation (1000 g, 5 min, 4°C) in PBS (pH 7.4), and then resuspended in PBS to obtain the erythrocyte with a dilution of approximately 1% (v/v). Then, 50 µL of hRBCs solution was incubated with 50 µL of different concentrations of the peptides dissolved in PBS for 1 h at 37°C, before centrifugation (1000 g, 5 min, 4°C) again. The absorbance of the supernatants was measured at optical density (OD) 492 nm. […] The control samples for 0% and 100% hemolysis consisted of hRBCs in PBS (Ablank) only and in 0.1% Triton X-100 (Atriton), respectively. The percentage of hemolysis was calculated according to the following equation: [drawing 3]
As for FRIRVRV-NH2 [FV7, reference compound], the “Therapeutic index (ratio of MHC to GM)” value stood at 17.7.

As to RFRRLFRIRVRVLKKI-NH2 [R-FV-I16], the “Therapeutic index (ratio of MHC to GM)” value came out at 64.

In the case of RFRRLRKKTRKRLKKI-NH2 [RI16], the “Therapeutic index (ratio of MHC to GM)” value came to 4.2.

Turning to RKKTRKR-NH2 [RR7], the “Therapeutic index (ratio of MHC to GM)” value was 2.

Source of the values: publication PMC4063695, “Design of Embedded-Hybrid Antimicrobial Peptides with Enhanced Cell Selectivity and Anti-Biofilm Activity” (PLoS ONE, 2014).
